Measurements reported in PubChem BioAssay AID1259424 (University of Nebraska Medical Center, 2018).
Purpose: 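Rank knockdowns across the genome by resemblance to the KSR1 depletion profile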 (primary screen). Cells: human HCT116 colon cancer cells. Reagent: siRNA pool against human genes, 50 nM. Detection: 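Six signature mRNAs by branched-DNA multiplex assay, scaled to two housekeeping genes and non-targeting median, log2; matched to mean KSR1 knockdown profile by Pearson correlation and euclidean distance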. Direction: mean correlation with KSR1 profile: higher = expression change more like KSR1 knockdown; mean distance from KSR1 profile: higher = expression change less like KSR1 knockdown.
Here is a random part of about 14,000 reagents tested. 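Higher correlation or smaller distance means closer resemblance to KSR1 loss; control wells, including KSR1 knockdowns, recur on many plates.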 Reagents against one gene are numbered here. Some reagents were tested in more than one well and are listed for each. Further read-outs or replicates are left out here. Not given: the time to read-out.

gene knocked down,pool no.,mean correlation with KSR1 profile,mean distance from KSR1 profile
KRR1,1,0.549,1.11
TIAM2,1,-0.443,2.57
TIAM2,1,-0.729,2.8
KLRG1,1,0.221,1.29
UBE2V1,1,-0.543,2.11
PDP1,1,-0.0757,2.94
ANO2,1,0.1,1.35
DGKI,1,0.0324,3.09
TOMM7,1,-0.614,7.16
FAF1,1,-0.323,2.19
RSBN1,1,-0.847,2.57
RIN1,1,0.872,0.912
CSN1S1,1,-0.714,2.3
ALMS1,1,-0.676,2.97
ZC3H14,1,0.854,2.82
PTAFR,1,0.636,2.15
SMAD3,1,0.216,3.05
SMAD3,2,-0.286,2.6
STX10,1,-0.381,1.66
SELENON,1,0.679,2.05
TRIM48,1,0.466,1.21
MDH1,1,0.453,1.16
ERGIC2,1,0.118,0.945
ST3GAL3,1,0.336,3.49
TMEM53,1,0.527,1.88
CEP135,1,0.645,2.55
WNT5B,1,-0.858,2.39

Not a retest: an excerpt of the list.
gene knocked down,pool no.,mean correlation with KSR1 profile,mean distance from KSR1 profile
PTAFR,1,0.636,2.15
SMAD3,1,0.216,3.05
SMAD3,2,-0.286,2.6
STX10,1,-0.381,1.66
SELENON,1,0.679,2.05

Next reagents follow:
gene knocked down,pool no.,mean correlation with KSR1 profile,mean distance from KSR1 profile
MYT1L,1,-0.299,1.53
UQCC1,1,-0.284,2.87
FAM234A,1,0.731,2.62
CCNG1,1,-0.171,1.51
NRBF2,1,-0.292,2
FIZ1,1,0.202,3.55
FAM117B,1,-0.612,4.57
XKR8,1,-0.269,2.82
BCL7C,1,0.211,2.35
MTMR3,1,0.12,1.97
IGF2BP1,1,0.466,1.49
BTN1A1,1,0.292,1.4
FNBP1,1,0.139,0.814
TCIM,1,-0.619,2.22
ARL3,1,0.769,1.1
DHX34,1,0.628,0.96
ETV3,1,0.42,2.65
DNAH8,1,-0.549,2.9
VWA7,1,0.96,0.923
DNAJB11,1,-0.48,2.19
DERA,1,0.531,3.41
CALR,1,-0.079,2.47
OR5I1,1,0.322,2.8
IL18R1,1,0.535,1.38
RAPSN,1,0.19,2.57
NDUFA7,1,-0.24,2.79
ACE,1,-0.154,1.98
OR10J1,1,0.63,3.16
CSGALNACT2,1,-0.593,2.23
KATNAL1,1,0.495,1.87
ADH1B,1,-0.366,2.11
RBPMS,1,0.382,1.61
BFSP2,1,-0.0303,1.54
ATP6V0A1,1,-0.44,6.65
MRPS18C,1,-0.615,3.43
MAP7D3,1,0.593,1.12
